## Assay results

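Uptake of anthrax lethal toxin into cultured cells, read by FRET (460/530 nm ratio) and reported from the 460 nm channel; the cell line is not named here.
Each compound was tested as a concentration series from about 0.0005 to 40 µM.
The number is the fitted AC50 of the 460 nm signal alone; lower values mean a more potent effect. A falling signal goes with compounds filed as inhibitors or cytotoxic, a rising one with activators or fluorescent compounds (inferred from the filed classes).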

Values are in µM.
Common to all entries: measured here: 460 nm channel.
Part of the compounds only, not a random draw; the main read-out is not listed here.
Potencies fitted to partial, single-point or poorly fitting curves are rough.
The first word of each remark tells which way the curve ran; it can be opposite to the aim of the assay.

- CN(C)c1ncc2nc(-c3cc(F)cc(F)c3)c(=O)n(CCc3ccccc3)c2n1 : AC50 3.162 µM (rising, full curve)
- COC(=O)NC(c1ccco1)C(C(C)=O)C(=O)OC (stereo not given) : AC50 0.2512 µM (rising, single point)
- Cc1ccc2c(c1)nnn2C1CCN(S(=O)(=O)c2ccc(C(=O)NC3CCCC3)cc2)CC1 : AC50 19.95 µM (rising, partial curve)
- COc1cccc(Cn2c(=O)c(CCc3ccccc3)nc3cnc(N4CCN(C)CC4)nc32)c1 : AC50 5.012 µM (rising, partial curve)
- COc1ccc(-c2nc(NC(=O)C3CCN(c4nc5ccccc5o4)CC3)sc2C)cc1 : AC50 3.981 µM (rising, partial curve)
- O=C(CCCn1c(=S)[nH]c2cc3c(cc2c1=O)OCO3)N1CCN(c2ccccc2F)CC1 : AC50 0.7943 µM (rising, full curve, poor fit)
- CC[N+](CC)(CCCNC1=CC(=O)C(NCCC[N+](CC)(CC)Cc2ccccc2)=CC1=O)Cc1ccccc1 : AC50 1 µM (falling, full curve)
- COc1ccccc1-c1noc(-c2cccnc2)n1 : AC50 10 µM (rising, single point)
- CCOC(=O)CCCn1nc(C)n2c(cc3sccc32)c1=O : AC50 1.995 µM (rising, partial curve)
- CC(=O)Oc1cc2oc(=O)c3c(c2cc1Cl)CCC3 : AC50 12.59 µM (rising, partial curve)
- O=C(COc1ccccc1)N(Cc1ccco1)C1CCS(=O)(=O)C1 (stereo not given) : AC50 0.1995 µM (falling, full curve)
- Cc1cc(NC(=O)CCC(=O)N(c2ccc(F)cc2)C2(C(=O)NC3CCCCC3)CCCC2)no1 : AC50 10 µM (rising, partial curve)
- O=C(c1ccco1)N1CCC[C@@]2(CCN(Cc3nccs3)C2)C1 : AC50 3.162 µM (rising, partial curve)
- COC(=O)Cn1c(C(=O)N2CCCC2)cc2c1C[C@H]1CN(C(=O)c3ccccc3)[C@@](Cc3ccccc3)(C(=O)OC)[C@@H]21 : AC50 12.59 µM (rising, single point)
- COc1cccc(Cn2c(=O)c(-c3ccc(Cl)cc3)nc3cnc(N4CCNCC4)nc32)c1 : AC50 3.162 µM (rising, partial curve)
- CC(=O)c1c(N2CCN(Cc3ccccc3)CC2)[nH]c(-c2ccccc2)nc1=S : AC50 2.512 µM (rising, full curve)
- COc1cccc(C(c2nnnn2CCc2ccccc2)N2CCN(c3ccccc3)CC2)c1OC (stereo not given) : AC50 1.585 µM (falling, partial curve)
- Cc1ccc2oc(=O)c3cnn(CC(=O)N4CCCCC4C)c3c2c1 (stereo not given) : AC50 10 µM (rising, partial curve)
- Cn1c(C(=O)NCCN2CCCCCC2)cc2c(=O)n(C)c3ccccc3c21 : AC50 1.995 µM (falling, full curve)
- O=c1c(-c2ccc(F)cc2)nc2cnc(Nc3ccccc3)nc2n1C1CC1 : AC50 19.95 µM (rising, single point)
- CC(C)N(CC[C@@](C(N)=O)(c1ccccc1)c1ccccn1)C(C)C : AC50 0.0007943 µM (rising, full curve, poor fit)
- O=C(NCc1ccco1)Nc1ccc(Br)cc1 : AC50 12.59 µM (falling, partial curve)
- O=C(CSc1ncccc1-c1nc2ccccc2[nH]1)N1CCCCC1 : AC50 0.003981 µM (rising, full curve, poor fit)
- C[C@H](NC(=O)/C(C#N)=C/c1ccc(O)c(O)c1)c1ccccc1 : AC50 12.59 µM (falling, partial curve)
- CS(=O)(=O)N1CCC2(CCCN(C(c3ccccc3)c3ccccc3)C2)CC1 : AC50 7.943 µM (falling, partial curve)
- COCCNC(=O)Cn1cnc2ccc(S(=O)(=O)N3CCC(C)CC3)cc2c1=O : AC50 5.012 µM (rising, single point)
- CCCCCn1c(SCc2ccncc2)nc2cc(C(=O)NCc3ccco3)ccc2c1=O : AC50 10 µM (rising, partial curve, poor fit)
- CCN(CCNC(=O)Cn1c(=O)sc2ccccc21)c1ccccc1 : AC50 19.95 µM (falling, single point)
- NC(N)=NC(N)=Nc1cccc(Cl)c1 : AC50 10 µM (falling, partial curve)
- CSc1ccc2c(c1)N(CC[C@H]1CCCCN1C)c1ccccc1S2 : AC50 10 µM (falling, partial curve, poor fit)
- O=C(c1cc(-c2ccc(O)cc2)on1)N1CCc2ccccc2C1 : AC50 19.95 µM (falling, partial curve)
- COC(=O)[C@@H]1[C@H]2C[C@H]3c4[nH]c5cc(OC)ccc5c4CCN3C[C@@H]2C[C@@H](OC(=O)c2cc(OC)c(OC)c(OC)c2)[C@@H]1OC : AC50 0.003162 µM (rising, full curve, poor fit)
- CCOc1ccc(C(=O)N2CCCCCC2)cc1 : AC50 5.012 µM (falling, single point)
- CCCCOC(=O)C1=C(N)OC2=C(C(=O)CCC2)[C@]12C(=O)N(C)c1ccccc12 : AC50 0.005012 µM (rising, full curve, poor fit)
- COc1ccccc1CNc1nc(-c2cccc(NS(C)(=O)=O)c2)nc2ccccc12 : AC50 12.59 µM (falling, partial curve)
- CCOc1ccccc1N(CC(=O)NC1CCCC1)C(=O)CCC(=O)Nc1cc(C)on1 : AC50 12.59 µM (rising, single point)
- Clc1ccccc1-c1nn2c(Cn3cnc4ccccc43)nnc2s1 : AC50 10 µM (rising, single point)
- COc1ccc(-c2nc3cnc(N4CCOCC4)nc3n(C3CC3)c2=O)cc1 : AC50 10 µM (rising, partial curve)
- Cc1noc(C)c1-c1cc(NCCN2CCOCC2)ncn1 : AC50 5.012 µM (falling, single point)
- N#CC1=C(N)NC(SCC(=O)Nc2ccccc2)=C(C#N)C12CCCC2 : AC50 12.59 µM (falling, partial curve)
- CC(NC(=O)c1cc2ccccc2o1)C(=O)O (stereo not given) : AC50 5.012 µM (rising, single point)

Some entries from above, unchanged:

{"compound": "Cc1ccc2c(c1)nnn2C1CCN(S(=O)(=O)c2ccc(C(=O)NC3CCCC3)cc2)CC1", "AC50 (µM)": "19.95", "curve": "rising, partial curve"}
{"compound": "O=C(c1ccco1)N1CCC[C@@]2(CCN(Cc3nccs3)C2)C1", "AC50 (µM)": "3.162", "curve": "rising, partial curve"}
{"compound": "COC(=O)[C@@H]1[C@H]2C[C@H]3c4[nH]c5cc(OC)ccc5c4CCN3C[C@@H]2C[C@@H](OC(=O)c2cc(OC)c(OC)c(OC)c2)[C@@H]1OC", "AC50 (µM)": "0.003162", "curve": "rising, full curve, poor fit"}

Source: PubChem BioAssay AID912 (NCATS, 2007).